# Source: ChEMBL document CHEMBL5500403, “Discovery of a Double-Stapled Short Peptide as a Long-Acting HIV-1 Inactivator with Potential for Oral Bioavailability” (J Med Chem, 2024)
# Assay: Apparent permeability in human Caco-2 cells at 5 uM
# Format: ADME, cell-based
smiles,measurement,value
CC(C)NCC(O)COc1cccc2ccccc12 (stereo unspecified) [PROPRANOLOL],Papp at 5 µM,28.5 ×10⁻⁶ cm/s
